Numbering of substitutions follows the chain as printed. No constants are given. Whether binding was seen depends on the method and setting. Some results given as binding are weak or reduced against the parent protein; the word gives no strength.
Experiments:
[1] = biological target: Factor X (Enzyme Research Laboratories) (UniProt P00742); assay: ELISA, Factor X coated on plate (Fig. 6 legend)
[2] = biological target: Factor X (Enzyme Research Laboratories) (UniProt P00742); assay: ELISA, Factor X coated at 1 µg/ml, absorbance at 405 nm

By UniProt entry, the sequences of proteins in these tests, tags left out. Residues count along the entry.
UniProt P00742, residues 41-488: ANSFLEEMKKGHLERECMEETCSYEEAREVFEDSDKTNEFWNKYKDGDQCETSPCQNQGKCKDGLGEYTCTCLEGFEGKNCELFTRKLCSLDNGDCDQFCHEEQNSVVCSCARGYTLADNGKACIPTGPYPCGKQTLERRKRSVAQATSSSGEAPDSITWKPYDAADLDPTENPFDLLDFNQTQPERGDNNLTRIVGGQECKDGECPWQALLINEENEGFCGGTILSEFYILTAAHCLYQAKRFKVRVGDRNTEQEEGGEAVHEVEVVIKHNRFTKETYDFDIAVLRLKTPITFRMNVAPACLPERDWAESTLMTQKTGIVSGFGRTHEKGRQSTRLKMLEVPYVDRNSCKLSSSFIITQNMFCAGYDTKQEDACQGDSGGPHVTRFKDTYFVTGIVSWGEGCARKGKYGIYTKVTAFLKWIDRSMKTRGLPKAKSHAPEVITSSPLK

B1: humanized B26 antibody hB26-F123e4 (antibody, human IgG4, V domains shown)
VH: QVQLVQSGPDVKKPGASVKVSCKASGYMFSDNNMDWARQAPGQGLEWMGDINTKSGGSIYNQKFKGRVIMTIDKSTGTAYMELRSLRSDDTAIYYCARRRSYGYYFDYWGQGTLVTVSS
VL: DIVLTQSQKFMSTSVGDRVSITCKASQNVGTAVAWYQQKPGQSPKALIYSASYRYSGVPDRFTGSGSGTDFTLTISNVQSEDLAEYFCQQYNSYPLTFGAGTKLEIKR
modifications: N-terminal glutamine assumed to be pyroglutamylated (Pyr(Q) at H1)
For B1, the binding [1] was “binds” and the binding [2] was “binds”.

B2: hB26-p15 (modified form of humanized B26 antibody) (antibody, V domains shown)
VH: B1 VH with Q39K, Q43K, Q111R
VL: B1 VL
modifications: N-terminal glutamine assumed to be pyroglutamylated (Pyr(Q) at H1)
For B2, the binding [1] was “binds” and the binding [2] was “binds”.

Reference: EP4793360A2
